# Results deposited as PubChem BioAssay AID686938 (Drosophila RNAi Screening Center, 2013)
# Aim: 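Looking for CRAC channel components and the factors controlling them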 (primary screen)
# System: Drosophila S2R+ cells
# Reagents: long dsRNA against Drosophila genes, about 0.25 µg dsRNA per well, roughly 10,000 cells
# Duration: 5 days of knock-down before the calcium assay
# Conditions: thapsigargin (SERCA pump blocker) to empty calcium stores; entry signal taken 4 min after adding it
# Measured: 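Duplicate raw fluo-4 intensities per well from a plate reader, at rest and four minutes after thapsigargin emptied calcium stores; entry-to-rest ratio filled for only some wells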
# Reading the numbers: calcium entry signal: higher = stronger calcium signal after store depletion; entry to resting ratio: higher = more calcium entry relative to resting level; resting calcium signal: higher = higher resting calcium signal
# Hit rule: 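Called when the plate z-score of the entry-to-rest ratio, mean of duplicates, falls below −3; wells with low overall dye signal (Fmax z below −2) or more than five off-targets excluded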
# Meaning of the calls: active = strongly reduced calcium entry; inactive = no strong reduction
# The deposit covers about 23,000 reagents; this is a random part of those that have a named target and a result. In the full data, 75 (0.33%) got an active call. 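Raw plate signals without normalisation; calls rest on plate z-scores that were not deposited; ratio present for only 364 wells.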 Entries without a mark were called inactive. The numbers tell different reagents against one gene apart. Names joined by + are all predicted targets of the reagent. Not given: the dose of the treatment.
predicted target,dsRNA no.,"calcium entry signal, replicate 1 (fluorescence units)","calcium entry signal, replicate 2 (fluorescence units)",entry to resting ratio,"resting calcium signal, replicate 1 (fluorescence units)","resting calcium signal, replicate 2 (fluorescence units)"
OtopLc (Otopetrin-like c),1,3.54e7,4.76e7,,1.83e7,2.20e7
OtopLc (Otopetrin-like c),2,2.89e7,4.44e7,,1.52e7,2.05e7
OtopLc (Otopetrin-like c),3,3.52e7,4.74e7,,1.69e7,2.20e7
CG31867,1,4.19e7,6.16e7,,2.08e7,2.59e7
CG7298,1,3.09e7,3.99e7,,1.52e7,2.99e7
Obp47b + CG7741,1,2.52e7,4.00e7,,1.27e7,1.60e7
Cp7Fa (Chorion protein a at 7F),1,3.31e7,4.71e7,,1.71e7,2.10e7
Cp7Fa (Chorion protein a at 7F),2,3.78e7,4.62e7,,1.87e7,2.09e7
side-III (sidestep III),1,4.69e7,3.05e7,,2.24e7,1.54e7
side-III (sidestep III),2,4.63e7,3.51e7,,2.48e7,1.78e7
side-III (sidestep III),3,4.54e7,3.08e7,,2.18e7,1.52e7
CG2772,1,3.01e7,3.42e7,,1.53e7,1.57e7
CG3663,1,4.43e7,,,2.15e7,
Theg (Testicular haploid expressed gene),1,1.83e7,2.23e7,,1.00e7,1.06e7
Prosbeta5 (Proteasome beta5 subunit),1,2.18e7,3.60e7,,1.55e7,1.64e7
CG5321,1,3.16e7,3.58e7,,1.71e7,1.67e7
CG5321,2,3.36e7,4.20e7,,1.60e7,2.05e7
CG10445,1,5.55e7,3.46e7,,2.36e7,1.51e7
CG43331,1,3.08e7,5.02e7,,1.59e7,2.31e7
CG18179,1,3.14e7,3.68e7,,1.54e7,1.63e7
ringer (ringmaker),1,3.65e7,4.34e7,,1.61e7,1.89e7
CG7342,1,3.15e7,2.90e7,,1.58e7,1.32e7

The list goes on; the last 8 above are carried over.
predicted target,dsRNA no.,"calcium entry signal, replicate 1 (fluorescence units)","calcium entry signal, replicate 2 (fluorescence units)",entry to resting ratio,"resting calcium signal, replicate 1 (fluorescence units)","resting calcium signal, replicate 2 (fluorescence units)"
Prosbeta5 (Proteasome beta5 subunit),1,2.18e7,3.60e7,,1.55e7,1.64e7
CG5321,1,3.16e7,3.58e7,,1.71e7,1.67e7
CG5321,2,3.36e7,4.20e7,,1.60e7,2.05e7
CG10445,1,5.55e7,3.46e7,,2.36e7,1.51e7
CG43331,1,3.08e7,5.02e7,,1.59e7,2.31e7
CG18179,1,3.14e7,3.68e7,,1.54e7,1.63e7
ringer (ringmaker),1,3.65e7,4.34e7,,1.61e7,1.89e7
CG7342,1,3.15e7,2.90e7,,1.58e7,1.32e7
CG12158,1,3.81e7,2.94e7,,1.90e7,1.43e7
CG1208,1,3.86e7,4.43e7,,1.69e7,1.92e7
lncRNA:CR43337 (long non-coding RNA:CR43337),1,4.48e7,4.12e7,,2.41e7,2.01e7
Jon65Ai (Jonah 65Ai),1,2.25e7,3.77e7,,1.17e7,1.82e7
CG15515,1,3.96e7,6.69e7,,2.05e7,2.84e7
CG32036,1,4.42e7,4.07e7,,3.10e7,1.65e7
CG43271,1,2.95e7,3.69e7,,1.75e7,2.09e7
CG43271,2,3.15e7,3.71e7,,1.68e7,1.68e7
CG8838,1,4.71e7,,,2.27e7,
Sf3b5 (Splicing factor 3b subunit 5),1,1.75e7,2.67e7,,1.19e7,1.73e7
yellow-e,1,2.85e7,5.04e7,,1.56e7,2.24e7
yellow-e,2,3.28e7,6.10e7,,1.59e7,7.17e7
CG31058 (retired record),1,2.09e7,3.85e7,,1.23e7,1.99e7
CG31058 (retired record),2,4.12e7,3.67e7,,2.30e7,1.62e7
Reph (Regulator of eph expression),1,5.70e7,,,2.63e7,
Reph (Regulator of eph expression),2,3.30e7,5.21e7,,1.62e7,2.42e7
Kaz-m1 (Kazal-type protease inhibitor m1),1,3.05e7,6.61e7,,1.71e7,2.73e7
CG2924,1,3.93e7,4.36e7,,1.76e7,1.91e7
Sec15 (Secretory 15),1,3.69e7,3.18e7,,2.44e7,5.63e7
EMC10 (ER membrane protein complex subunit 10),1,2.62e7,3.96e7,,1.22e7,1.63e7
Ak1 (Adenylate kinase 1),1,2.73e7,3.17e7,,1.47e7,1.60e7
l(3)07882 (lethal (3) 07882),1,3.00e7,2.84e7,,1.54e7,1.65e7
CG8243,1,5.50e7,3.35e7,,2.20e7,1.56e7
CG8243,2,3.34e7,3.22e7,,1.95e7,1.38e7
Ubi-p63E (Ubiquitin-63E),1,2.98e7,7.41e7,,1.44e7,3.12e7
vlc (vulcan),1,3.86e7,4.75e7,,2.03e7,2.00e7
CG18823,1,4.56e7,6.15e7,2.2,2.11e7,2.47e7
bt (bent),1,4.26e7,4.29e7,,1.94e7,1.98e7
bt (bent),2,3.77e7,4.13e7,,1.83e7,1.95e7
agt (O-6-alkylguanine-DNA alkyltransferase),1,4.69e7,2.96e7,,2.23e7,1.41e7
CG43393,1,2.95e7,4.65e7,,1.35e7,2.06e7
CG7730,1,3.09e7,4.13e7,,1.42e7,2.78e7
Trhn (Tryptophan hydroxylase neuronal),1,2.42e7,1.94e7,,1.16e7,9.96e6
CG43326 + CG43325,1,3.28e7,3.86e7,,1.75e7,1.70e7
Sf3b3 (Splicing factor 3b subunit 3),1,1.24e7 (active),1.69e7,,8.58e6,1.13e7
CG4842,1,7.95e7,9.55e7,,3.19e7,3.03e7
